# Some of the results follow. The list holds hits alone, and they repeat only in part.
# Sequences of proteins named here, by UniProt entry; tags and fusion partners are left off.
# ATP6V0D1, P61421, UniProt P61421, whole entry: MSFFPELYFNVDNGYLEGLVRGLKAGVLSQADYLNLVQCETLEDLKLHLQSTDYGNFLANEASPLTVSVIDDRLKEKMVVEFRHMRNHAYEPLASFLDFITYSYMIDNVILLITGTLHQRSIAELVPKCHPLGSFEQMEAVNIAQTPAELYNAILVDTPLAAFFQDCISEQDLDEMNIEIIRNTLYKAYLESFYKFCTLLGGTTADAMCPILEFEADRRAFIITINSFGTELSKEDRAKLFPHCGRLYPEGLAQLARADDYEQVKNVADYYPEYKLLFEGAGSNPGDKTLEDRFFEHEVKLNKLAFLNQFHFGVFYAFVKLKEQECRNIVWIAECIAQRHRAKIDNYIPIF
# CDC27, P30260, UniProt P30260, whole entry: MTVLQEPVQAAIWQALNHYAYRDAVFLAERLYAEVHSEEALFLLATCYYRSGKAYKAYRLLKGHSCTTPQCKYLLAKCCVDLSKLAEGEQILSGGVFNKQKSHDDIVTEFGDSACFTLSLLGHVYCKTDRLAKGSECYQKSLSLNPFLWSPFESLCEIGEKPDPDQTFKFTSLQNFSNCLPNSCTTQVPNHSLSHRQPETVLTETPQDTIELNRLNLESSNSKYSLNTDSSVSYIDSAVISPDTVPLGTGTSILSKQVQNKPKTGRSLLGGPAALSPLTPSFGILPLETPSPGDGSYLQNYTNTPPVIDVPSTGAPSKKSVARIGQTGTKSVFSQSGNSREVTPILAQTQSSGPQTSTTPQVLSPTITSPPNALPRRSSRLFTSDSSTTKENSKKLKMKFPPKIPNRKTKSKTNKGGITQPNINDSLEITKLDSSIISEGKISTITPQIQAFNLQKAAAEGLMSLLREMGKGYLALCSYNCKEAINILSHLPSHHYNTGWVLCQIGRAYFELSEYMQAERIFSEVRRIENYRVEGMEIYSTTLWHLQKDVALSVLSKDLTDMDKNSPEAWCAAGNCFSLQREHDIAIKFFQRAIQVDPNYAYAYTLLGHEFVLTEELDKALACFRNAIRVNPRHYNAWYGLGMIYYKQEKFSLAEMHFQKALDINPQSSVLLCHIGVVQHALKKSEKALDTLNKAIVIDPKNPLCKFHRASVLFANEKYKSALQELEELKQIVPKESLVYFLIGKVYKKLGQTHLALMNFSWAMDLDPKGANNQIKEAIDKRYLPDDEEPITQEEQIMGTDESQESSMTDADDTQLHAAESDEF
# NCAPH, Q15003, UniProt Q15003, whole entry: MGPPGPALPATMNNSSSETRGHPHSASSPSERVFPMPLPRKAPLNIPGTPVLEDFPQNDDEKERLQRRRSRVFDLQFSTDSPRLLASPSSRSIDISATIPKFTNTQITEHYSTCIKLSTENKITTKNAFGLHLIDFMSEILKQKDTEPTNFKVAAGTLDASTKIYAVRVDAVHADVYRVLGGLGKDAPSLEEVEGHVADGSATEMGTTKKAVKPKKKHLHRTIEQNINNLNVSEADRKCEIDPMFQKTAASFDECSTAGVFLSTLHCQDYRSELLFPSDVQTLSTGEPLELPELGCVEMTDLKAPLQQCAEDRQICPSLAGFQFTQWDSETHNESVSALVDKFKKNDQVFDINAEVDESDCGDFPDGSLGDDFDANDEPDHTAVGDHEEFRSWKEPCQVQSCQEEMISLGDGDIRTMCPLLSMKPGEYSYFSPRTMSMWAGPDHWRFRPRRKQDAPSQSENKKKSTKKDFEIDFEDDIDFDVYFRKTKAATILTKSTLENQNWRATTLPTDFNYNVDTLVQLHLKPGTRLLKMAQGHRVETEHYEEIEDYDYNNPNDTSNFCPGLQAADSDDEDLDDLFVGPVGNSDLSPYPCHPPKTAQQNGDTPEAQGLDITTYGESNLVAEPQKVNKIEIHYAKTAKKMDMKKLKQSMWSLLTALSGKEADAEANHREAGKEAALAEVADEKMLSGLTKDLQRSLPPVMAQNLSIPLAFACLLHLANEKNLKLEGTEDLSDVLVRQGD
# NDUFB7, P17568, UniProt P17568, whole entry: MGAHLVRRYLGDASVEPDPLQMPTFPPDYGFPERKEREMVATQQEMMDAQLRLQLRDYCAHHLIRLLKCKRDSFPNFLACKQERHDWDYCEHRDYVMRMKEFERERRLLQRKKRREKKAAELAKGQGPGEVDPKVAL
# RFC4, P35249, UniProt P35249, whole entry: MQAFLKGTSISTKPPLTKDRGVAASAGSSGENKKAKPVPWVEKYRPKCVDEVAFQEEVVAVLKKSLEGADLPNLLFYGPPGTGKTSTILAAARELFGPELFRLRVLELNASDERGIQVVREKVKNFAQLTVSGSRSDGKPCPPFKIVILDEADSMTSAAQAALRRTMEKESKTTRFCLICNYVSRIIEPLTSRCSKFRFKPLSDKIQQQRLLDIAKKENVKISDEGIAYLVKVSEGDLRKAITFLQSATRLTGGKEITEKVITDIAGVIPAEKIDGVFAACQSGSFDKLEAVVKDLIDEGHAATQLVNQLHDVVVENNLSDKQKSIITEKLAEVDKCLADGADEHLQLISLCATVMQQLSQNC
# HIST1H1E, P10412, UniProt P10412, whole entry: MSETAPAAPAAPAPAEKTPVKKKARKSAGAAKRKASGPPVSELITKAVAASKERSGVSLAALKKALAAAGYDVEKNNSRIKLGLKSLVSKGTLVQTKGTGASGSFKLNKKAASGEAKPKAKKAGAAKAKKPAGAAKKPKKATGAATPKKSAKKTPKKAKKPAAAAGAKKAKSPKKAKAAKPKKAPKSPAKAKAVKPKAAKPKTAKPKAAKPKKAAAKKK
# SP1, P08047, UniProt P08047, whole entry: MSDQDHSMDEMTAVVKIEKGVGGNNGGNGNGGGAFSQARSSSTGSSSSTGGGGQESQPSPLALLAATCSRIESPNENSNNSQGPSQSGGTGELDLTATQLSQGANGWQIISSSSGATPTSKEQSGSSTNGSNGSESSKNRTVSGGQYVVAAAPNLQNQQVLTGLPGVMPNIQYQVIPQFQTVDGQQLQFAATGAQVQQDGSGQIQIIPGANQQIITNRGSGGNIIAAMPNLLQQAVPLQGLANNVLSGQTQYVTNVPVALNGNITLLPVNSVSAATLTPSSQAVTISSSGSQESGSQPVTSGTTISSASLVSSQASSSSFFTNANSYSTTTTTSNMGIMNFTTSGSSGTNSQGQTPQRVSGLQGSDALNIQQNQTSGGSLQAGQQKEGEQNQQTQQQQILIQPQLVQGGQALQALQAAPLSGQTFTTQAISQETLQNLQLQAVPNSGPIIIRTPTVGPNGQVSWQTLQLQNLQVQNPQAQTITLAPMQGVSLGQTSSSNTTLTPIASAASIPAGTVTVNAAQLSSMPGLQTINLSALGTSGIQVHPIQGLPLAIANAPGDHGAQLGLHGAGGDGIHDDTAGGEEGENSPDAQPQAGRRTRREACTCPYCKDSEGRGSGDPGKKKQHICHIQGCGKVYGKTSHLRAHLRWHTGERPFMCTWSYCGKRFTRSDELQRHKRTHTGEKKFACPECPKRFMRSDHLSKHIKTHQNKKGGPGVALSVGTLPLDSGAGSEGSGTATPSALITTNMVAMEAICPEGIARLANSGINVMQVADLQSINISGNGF
# EIF5, P55010, UniProt P55010, whole entry: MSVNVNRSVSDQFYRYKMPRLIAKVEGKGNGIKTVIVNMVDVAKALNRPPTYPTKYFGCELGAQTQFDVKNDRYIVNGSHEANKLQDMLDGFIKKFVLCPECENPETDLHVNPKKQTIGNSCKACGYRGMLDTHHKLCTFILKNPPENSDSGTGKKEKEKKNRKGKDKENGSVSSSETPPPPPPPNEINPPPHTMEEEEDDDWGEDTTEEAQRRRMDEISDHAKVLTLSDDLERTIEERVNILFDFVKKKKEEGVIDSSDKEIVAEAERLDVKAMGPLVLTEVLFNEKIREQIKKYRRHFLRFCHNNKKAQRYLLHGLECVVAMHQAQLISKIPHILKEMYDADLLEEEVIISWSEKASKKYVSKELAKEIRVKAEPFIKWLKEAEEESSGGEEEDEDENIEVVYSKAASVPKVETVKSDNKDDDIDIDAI
# SNRPG, P62308, UniProt P62308, whole entry: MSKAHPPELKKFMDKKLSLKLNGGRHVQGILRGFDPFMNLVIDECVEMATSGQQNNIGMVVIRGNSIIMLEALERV
# Key:
# Experiment in all cases: PRISMA enrichment of interactor (LFQ) in peptide spot vs all other peptide spots (log2 fold change); higher = stronger / more specific binding of the interactor to the peptide
# ATP6V0D1, P61421 = target: ATP6V0D1, P61421
# Experimental: (§1)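 PRISMA: 15-aa overlapping tiles (offset 8 aa) of 60 microproteins, plus SOS1/GLUT1 control peptides, were spot-synthesized on cellulose membranes in triplicate. Membranes were incubated with benzonase-treated HEK293T lysate, and bound proteins were identified by LC-MS/MS with LFQ. Enrichment is the log2 fold change of each protein in one spot versus all other spots. Only interactors passing the significance cutoff are listed.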
# C19orf53, Q9UNZ5 = target: C19orf53, Q9UNZ5
# Experimental: as §1
# CDC27, P30260 = target: CDC27, P30260
# Experimental: as §1
# CPSF3, Q9UKF6 = target: CPSF3, Q9UKF6
# Experimental: as §1
# CSTF1, Q05048 = target: CSTF1, Q05048
# Experimental: as §1
# GRB2, P62993 = target: GRB2, P62993
# Experimental: as §1
# H2AFV, Q71UI9 = target: H2AFV, Q71UI9
# Experimental: as §1
# HMGA1, P17096 = target: HMGA1, P17096
# Experimental: as §1
# LMNA, P02545 = target: LMNA, P02545
# Experimental: as §1
# MEPCE, Q7L2J0 = target: MEPCE, Q7L2J0
# Experimental: as §1
# MPDU1, O75352 = target: MPDU1, O75352
# Experimental: as §1
# MRPL39, Q9NYK5 = target: MRPL39, Q9NYK5
# Experimental: as §1
# MRPS27, Q92552 = target: MRPS27, Q92552
# Experimental: as §1
# NCAPH, Q15003 = target: NCAPH, Q15003
# Experimental: as §1
# NDUFB7, P17568 = target: NDUFB7, P17568
# Experimental: as §1
# NUP107, P57740 = target: NUP107, P57740
# Experimental: as §1
# PPAN-P2RY11 = target: PPAN-P2RY11
# Experimental: as §1
# PSMA5, P28066 = target: PSMA5, P28066
# Experimental: as §1
# RFC4, P35249 = target: RFC4, P35249
# Experimental: as §1
# SCAMP3, O14828 = target: SCAMP3, O14828
# Experimental: as §1
# CSNK1A1, P48729 = target: CSNK1A1, P48729
# Experimental: as §1
# EXOSC10, Q01780 = target: EXOSC10, Q01780
# Experimental: as §1
# FGA, P02671 = target: FGA, P02671
# Experimental: as §1
# HERC5, Q9UII4 = target: HERC5, Q9UII4
# Experimental: as §1
# HIST1H1E, P10412 = target: HIST1H1E, P10412
# Experimental: as §1
# HOMER2, Q9NSB8 = target: HOMER2, Q9NSB8
# Experimental: as §1
# HTATSF1, O43719 = target: HTATSF1, O43719
# Experimental: as §1
# KIF18A, Q8NI77 = target: KIF18A, Q8NI77
# Experimental: as §1
# MRPS14, O60783 = target: MRPS14, O60783
# Experimental: as §1
# MRPS6, P82932 = target: MRPS6, P82932
# Experimental: as §1
# NXT1, Q9UKK6 = target: NXT1, Q9UKK6
# Experimental: as §1
# ORC4, O43929 = target: ORC4, O43929
# Experimental: as §1
# SCP2, P22307 = target: SCP2, P22307
# Experimental: as §1
# SOAT1, P35610 = target: SOAT1, P35610
# Experimental: as §1
# SP1, P08047 = target: SP1, P08047
# Experimental: as §1
# TMEM256-PLSCR3 = target: TMEM256-PLSCR3
# Experimental: as §1
# ZRANB2, O95218 = target: ZRANB2, O95218
# Experimental: as §1
# EIF5, P55010 = target: EIF5, P55010
# Experimental: as §1
# ELP1, O95163 = target: ELP1, O95163
# Experimental: as §1
# MPC2, O95563 = target: MPC2, O95563
# Experimental: as §1
# PUS1, Q9Y606 = target: PUS1, Q9Y606
# Experimental: as §1
# RER1, O15258 = target: RER1, O15258
# Experimental: as §1
# SNRPG, P62308 = target: SNRPG, P62308
# Experimental: as §1
binder,measurement,setting,value
EVGRRVKEMVMLVAP [IDI2-AS1],PRISMA enrichment of interactor (log2),"ATP6V0D1, P61421",7.43
same,PRISMA enrichment of interactor (log2),"C19orf53, Q9UNZ5",9.32
same,PRISMA enrichment of interactor (log2),"CDC27, P30260",6.42
same,PRISMA enrichment of interactor (log2),"CPSF3, Q9UKF6",5.15
same,PRISMA enrichment of interactor (log2),"CSTF1, Q05048",3.95
same,PRISMA enrichment of interactor (log2),"GRB2, P62993",5.96
same,PRISMA enrichment of interactor (log2),"H2AFV, Q71UI9",4.98
same,PRISMA enrichment of interactor (log2),"HMGA1, P17096",4.25
same,PRISMA enrichment of interactor (log2),"LMNA, P02545",5.12
same,PRISMA enrichment of interactor (log2),"MEPCE, Q7L2J0",12.5
same,PRISMA enrichment of interactor (log2),"MPDU1, O75352",3.72
same,PRISMA enrichment of interactor (log2),"MRPL39, Q9NYK5",5.55
same,PRISMA enrichment of interactor (log2),"MRPS27, Q92552",5.78
same,PRISMA enrichment of interactor (log2),"NCAPH, Q15003",6.49
same,PRISMA enrichment of interactor (log2),"NDUFB7, P17568",4.67
same,PRISMA enrichment of interactor (log2),"NUP107, P57740",5.6
same,PRISMA enrichment of interactor (log2),PPAN-P2RY11,4.79
same,PRISMA enrichment of interactor (log2),"PSMA5, P28066",8.99
same,PRISMA enrichment of interactor (log2),"RFC4, P35249",5.73
same,PRISMA enrichment of interactor (log2),"SCAMP3, O14828",3.75
EMHFASSRNLPDDPE [RP11-432J24.5_2],PRISMA enrichment of interactor (log2),"ATP6V0D1, P61421",8.19
same,PRISMA enrichment of interactor (log2),"C19orf53, Q9UNZ5",7
same,PRISMA enrichment of interactor (log2),"CSNK1A1, P48729",4.89
same,PRISMA enrichment of interactor (log2),"EXOSC10, Q01780",5.6
same,PRISMA enrichment of interactor (log2),"FGA, P02671",5.23
same,PRISMA enrichment of interactor (log2),"HERC5, Q9UII4",4.62
same,PRISMA enrichment of interactor (log2),"HIST1H1E, P10412",7.62
same,PRISMA enrichment of interactor (log2),"HOMER2, Q9NSB8",4.13
same,PRISMA enrichment of interactor (log2),"HTATSF1, O43719",5.57
same,PRISMA enrichment of interactor (log2),"KIF18A, Q8NI77",5.57
same,PRISMA enrichment of interactor (log2),"MRPS14, O60783",5
same,PRISMA enrichment of interactor (log2),"MRPS6, P82932",4.34
same,PRISMA enrichment of interactor (log2),"NXT1, Q9UKK6",4.66
same,PRISMA enrichment of interactor (log2),"ORC4, O43929",8.23
same,PRISMA enrichment of interactor (log2),"SCP2, P22307",5.87
same,PRISMA enrichment of interactor (log2),"SOAT1, P35610",5.58
same,PRISMA enrichment of interactor (log2),"SP1, P08047",3.85
same,PRISMA enrichment of interactor (log2),TMEM256-PLSCR3,4.1
same,PRISMA enrichment of interactor (log2),"ZRANB2, O95218",4.98
PVAPLFLHELLVGSP [PSMB8-AS1],PRISMA enrichment of interactor (log2),"ATP6V0D1, P61421",7.04
same,PRISMA enrichment of interactor (log2),"EIF5, P55010",4.56
same,PRISMA enrichment of interactor (log2),"ELP1, O95163",4.76
same,PRISMA enrichment of interactor (log2),"MPC2, O95563",4.34
same,PRISMA enrichment of interactor (log2),"PUS1, Q9Y606",5.11
same,PRISMA enrichment of interactor (log2),"RER1, O15258",4.36
same,PRISMA enrichment of interactor (log2),"SNRPG, P62308",6.03

# In a second layout: entries from further up
binder	measurement	setting	value
EVGRRVKEMVMLVAP [IDI2-AS1]	PRISMA enrichment of interactor (log2)	NUP107, P57740	5.6
EMHFASSRNLPDDPE [RP11-432J24.5_2]	PRISMA enrichment of interactor (log2)	HTATSF1, O43719	5.57

# Reference: the supplement of paper PMC10032668
